# Results are given in words; binding and its absence hold for the method and conditions named. In cells and extracts the contact can be indirect. Some results given as binding are weak or reduced against the parent protein; the word gives no strength.
# Chains of the proteins cited; added tags and fusions are not shown.
# UniProt Q04206: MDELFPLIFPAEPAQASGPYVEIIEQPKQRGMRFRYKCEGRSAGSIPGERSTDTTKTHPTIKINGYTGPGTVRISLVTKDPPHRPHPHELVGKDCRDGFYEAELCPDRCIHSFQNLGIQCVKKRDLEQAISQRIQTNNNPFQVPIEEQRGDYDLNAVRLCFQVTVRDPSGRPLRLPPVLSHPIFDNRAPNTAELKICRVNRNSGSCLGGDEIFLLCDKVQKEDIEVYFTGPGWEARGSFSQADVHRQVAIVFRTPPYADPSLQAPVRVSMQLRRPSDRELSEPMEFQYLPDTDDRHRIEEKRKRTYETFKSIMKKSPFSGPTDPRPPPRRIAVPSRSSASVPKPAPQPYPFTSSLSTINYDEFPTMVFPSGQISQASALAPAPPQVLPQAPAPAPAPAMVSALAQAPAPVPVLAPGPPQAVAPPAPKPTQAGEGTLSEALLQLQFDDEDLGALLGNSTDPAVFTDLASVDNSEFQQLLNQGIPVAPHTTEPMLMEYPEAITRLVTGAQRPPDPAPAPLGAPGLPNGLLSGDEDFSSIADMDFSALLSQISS
# T1: EDF1 (endogenous, NC/control neuroblastoma cells) (human (endogenous in NB cell lines)) (UniProt O60869)
# T1 sequence: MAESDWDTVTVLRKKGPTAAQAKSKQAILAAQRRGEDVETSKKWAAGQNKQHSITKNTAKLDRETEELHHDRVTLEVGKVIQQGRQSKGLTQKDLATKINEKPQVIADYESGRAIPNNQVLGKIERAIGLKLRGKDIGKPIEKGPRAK
# B1: EDF1 (endogenous, NC/control neuroblastoma cells) (protein, UniProt O60869 1-148)
# chain: MAESDWDTVTVLRKKGPTAAQAKSKQAILAAQRRGEDVETSKKWAAGQNKQHSITKNTAKLDRETEELHHDRVTLEVGKVIQQGRQSKGLTQKDLATKINEKPQVIADYESGRAIPNNQVLGKIERAIGLKLRGKDIGKPIEKGPRAK
# B2: EDF1, full-length, overexpressed in NB cells (pcDNA3.1) (protein, UniProt O60869 1-148)
# chain: MAESDWDTVTVLRKKGPTAAQAKSKQAILAAQRRGEDVETSKKWAAGQNKQHSITKNTAKLDRETEELHHDRVTLEVGKVIQQGRQSKGLTQKDLATKINEKPQVIADYESGRAIPNNQVLGKIERAIGLKLRGKDIGKPIEKGPRAK
# Legend:
# [1] = molecular target: T1, EDF1 (endogenous, NC/control neuroblastoma cells) (human (endogenous in NB cell lines)); test: co-IP; NB cell lysates immunoprecipitated by anti-EDF1 antibody, blotted for NF-κB p65/RelA; IgG as negative control
# [2] = molecular target: NF-κB p65/RelA (human (endogenous in NB cell lines)) (UniProt Q04206); test: co-IP; NB cell lysates (NC and EDF1-overexpressed) immunoprecipitated by anti-NF-κB p65/RelA antibody, blotted for EDF1; IgG as negative control
binding [1],binding [2],Molecule
binds,–,NF-κB p65/RelA (from UniProt Q04206 1-551)
–,binds,B1
–,binds,B2

# Source: publication PMC11792593
